Laboratory results from patent publication US20150337049A1.

Molecular target: human CD3 on the human T-cell line Jurkat (human)
Experiment: FACS, Jurkat cells

- binding: binds
B1: IgG1-CD3-… (IgG1-huCLB-T3/4-F405L with L234F/L235E/D265A/N297Q/P331S) (antibody)
heavy: EVQLVESGGGLVKPGGSLRLSCAASGFTFSSYGMFWVRQAPGKGLEWVATISRYSRYIYYPDSVKGRFTISRDNAKNSLYLQMNSLRAEDTAVYYCARRPLYGSSPDYWGQGTLVTVSSASTKGPSVFPLAPSSKSTSGGTAALGCLVKDYFPEPVTVSWNSGALTSGVHTFPAVLQSSGLYSLSSVVTVPSSSLGTQTYICNVNHKPSNTKVDKRVEPKSCDKTHTCPPCPAPEFEGGPSVFLFPPKPKDTLMISRTPEVTCVVVAVSHEDPEVKFNWYVDGVEVHNAKTKPREEQYQSTYRVVSVLTVLHQDWLNGKEYKCKVSNKALPASIEKTISKAKGQPREPQVYTLPPSREEMTKNQVSLTCLVKGFYPSDIAVEWESNGQPENNYKTTPPVLDSDGSFLLYSKLTVDKSRWQQGNVFSCSVMHEALHNHYTQKSLSLSPGK
VL: EIVLTQSPATLSLSPGERATLSCSASSSVTYVHWYQQKPGQAPRLLIYDTSKLASGIPARFSGSGSGTDFTLTISSLEPEDFAVYYCFQGSGYPLTFGSGTKLEMR

- binding: binds
B2: IgG1-CD3-LFLENQ (IgG1-huCLB-T3/4-F405L with L234F/L235E/N297Q) (antibody)
heavy: B1 heavy with A267D, S333P
VL: B1 VL

Where a chain is given by its changes, count along the chain named. In names and notes the source's numbering stands. These are yes or no findings as the source states them, for the method shown. Binding can be weak; no strength is given. Each block holds one binder with its values, some of them ahead of it.
